Laboratory results as given in article PMC12772957.
Changes are numbered by the printed parent chain. Where two headings read alike, the source gives them in different places. These are yes or no findings as the source states them, for the method shown. Binding seen in cells or lysates may run through a third protein. Some entries that bind do so weakly or less than the wild type. For some assays here: Sequences can lack the tags named with a protein. One block for each molecule: values may come before it.

Chains of the proteins cited; added tags and fusions are not shown. Lines headed by an entry give the natural chain unless they say otherwise; changes in a name come on top. A line that says so, or that is headed by a name, gives the form on record, which may keep a tag or linker. Residues count along the entry.
UniProt Q9UHD9: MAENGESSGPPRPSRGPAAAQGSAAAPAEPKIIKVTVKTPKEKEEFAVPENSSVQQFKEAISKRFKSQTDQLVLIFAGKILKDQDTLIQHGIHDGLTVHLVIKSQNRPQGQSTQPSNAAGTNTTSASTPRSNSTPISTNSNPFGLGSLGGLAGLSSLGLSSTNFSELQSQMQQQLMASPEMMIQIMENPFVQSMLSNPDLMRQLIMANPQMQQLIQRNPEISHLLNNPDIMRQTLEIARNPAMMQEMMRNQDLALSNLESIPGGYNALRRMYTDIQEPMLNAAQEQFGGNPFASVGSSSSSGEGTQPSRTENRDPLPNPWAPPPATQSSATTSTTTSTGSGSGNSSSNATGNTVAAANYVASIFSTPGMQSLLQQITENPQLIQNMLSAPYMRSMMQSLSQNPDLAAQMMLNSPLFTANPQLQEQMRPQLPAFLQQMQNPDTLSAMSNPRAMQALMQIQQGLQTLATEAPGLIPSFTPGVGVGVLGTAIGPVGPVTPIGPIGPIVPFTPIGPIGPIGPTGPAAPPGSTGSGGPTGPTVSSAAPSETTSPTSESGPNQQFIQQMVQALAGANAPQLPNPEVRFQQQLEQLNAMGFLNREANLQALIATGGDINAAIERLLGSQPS
FLAG-UBQLN2 ΔUBA (AA 1-580): residues 1-580 of Q9UHD9
ΔSTIs FLAG-UBQLN2 (missing AA 178-248 and AA 379-462) (Q9UHD9, form named): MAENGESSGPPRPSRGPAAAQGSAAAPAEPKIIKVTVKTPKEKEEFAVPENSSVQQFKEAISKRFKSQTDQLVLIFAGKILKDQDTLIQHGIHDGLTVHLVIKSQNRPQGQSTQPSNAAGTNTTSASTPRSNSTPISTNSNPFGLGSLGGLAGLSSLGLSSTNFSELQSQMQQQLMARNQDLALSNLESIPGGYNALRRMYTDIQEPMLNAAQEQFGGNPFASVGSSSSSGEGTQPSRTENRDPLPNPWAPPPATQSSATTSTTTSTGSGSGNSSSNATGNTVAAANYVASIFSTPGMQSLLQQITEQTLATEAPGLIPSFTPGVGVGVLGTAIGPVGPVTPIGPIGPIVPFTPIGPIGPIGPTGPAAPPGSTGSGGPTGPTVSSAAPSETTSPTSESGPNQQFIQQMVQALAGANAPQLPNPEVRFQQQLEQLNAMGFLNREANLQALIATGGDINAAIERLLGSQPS
FLAG-UBQLN2 ΔUBL (AA 1-624 missing AA 33-107) (Q9UHD9, form named): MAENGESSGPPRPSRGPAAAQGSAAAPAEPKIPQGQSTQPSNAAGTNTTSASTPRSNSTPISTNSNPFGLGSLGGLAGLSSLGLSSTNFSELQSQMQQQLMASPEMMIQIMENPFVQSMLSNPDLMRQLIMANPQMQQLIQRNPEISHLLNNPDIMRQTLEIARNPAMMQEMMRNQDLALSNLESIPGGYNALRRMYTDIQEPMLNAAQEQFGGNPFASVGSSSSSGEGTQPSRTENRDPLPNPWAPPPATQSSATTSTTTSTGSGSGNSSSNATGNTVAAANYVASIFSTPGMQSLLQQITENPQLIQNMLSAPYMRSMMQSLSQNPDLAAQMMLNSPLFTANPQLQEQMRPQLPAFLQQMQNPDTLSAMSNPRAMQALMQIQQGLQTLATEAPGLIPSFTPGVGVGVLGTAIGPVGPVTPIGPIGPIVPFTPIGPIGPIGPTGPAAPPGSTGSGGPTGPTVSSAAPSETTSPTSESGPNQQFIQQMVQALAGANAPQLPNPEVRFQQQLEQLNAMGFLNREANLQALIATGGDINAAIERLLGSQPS
ΔPXX FLAG-UBQLN2 (missing AA 491-526) (Q9UHD9, form named): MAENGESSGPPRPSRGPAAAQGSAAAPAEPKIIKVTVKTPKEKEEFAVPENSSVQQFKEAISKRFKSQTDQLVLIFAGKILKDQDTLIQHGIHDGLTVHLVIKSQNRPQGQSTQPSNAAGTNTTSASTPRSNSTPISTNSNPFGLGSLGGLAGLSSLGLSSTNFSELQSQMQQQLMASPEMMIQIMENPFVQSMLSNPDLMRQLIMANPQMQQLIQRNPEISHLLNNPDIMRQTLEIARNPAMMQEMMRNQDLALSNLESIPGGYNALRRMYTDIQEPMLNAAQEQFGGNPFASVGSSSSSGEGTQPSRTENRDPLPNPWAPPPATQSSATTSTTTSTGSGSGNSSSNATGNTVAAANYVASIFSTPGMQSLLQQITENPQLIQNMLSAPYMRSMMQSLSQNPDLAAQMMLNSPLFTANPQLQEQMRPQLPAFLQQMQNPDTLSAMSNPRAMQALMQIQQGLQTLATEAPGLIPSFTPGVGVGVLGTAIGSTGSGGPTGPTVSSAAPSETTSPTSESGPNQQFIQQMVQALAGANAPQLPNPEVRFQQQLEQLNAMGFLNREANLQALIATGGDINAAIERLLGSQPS
UniProt P55036: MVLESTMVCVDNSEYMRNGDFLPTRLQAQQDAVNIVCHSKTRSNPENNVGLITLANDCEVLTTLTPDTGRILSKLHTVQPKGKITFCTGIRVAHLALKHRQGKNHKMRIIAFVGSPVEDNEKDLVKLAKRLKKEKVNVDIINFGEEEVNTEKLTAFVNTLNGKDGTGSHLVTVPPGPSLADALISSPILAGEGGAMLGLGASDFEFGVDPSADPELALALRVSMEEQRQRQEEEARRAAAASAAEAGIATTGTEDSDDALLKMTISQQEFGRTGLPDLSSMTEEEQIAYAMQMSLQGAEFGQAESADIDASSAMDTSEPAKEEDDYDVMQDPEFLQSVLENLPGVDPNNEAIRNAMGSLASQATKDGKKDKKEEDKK
UniProt Q9UMX0: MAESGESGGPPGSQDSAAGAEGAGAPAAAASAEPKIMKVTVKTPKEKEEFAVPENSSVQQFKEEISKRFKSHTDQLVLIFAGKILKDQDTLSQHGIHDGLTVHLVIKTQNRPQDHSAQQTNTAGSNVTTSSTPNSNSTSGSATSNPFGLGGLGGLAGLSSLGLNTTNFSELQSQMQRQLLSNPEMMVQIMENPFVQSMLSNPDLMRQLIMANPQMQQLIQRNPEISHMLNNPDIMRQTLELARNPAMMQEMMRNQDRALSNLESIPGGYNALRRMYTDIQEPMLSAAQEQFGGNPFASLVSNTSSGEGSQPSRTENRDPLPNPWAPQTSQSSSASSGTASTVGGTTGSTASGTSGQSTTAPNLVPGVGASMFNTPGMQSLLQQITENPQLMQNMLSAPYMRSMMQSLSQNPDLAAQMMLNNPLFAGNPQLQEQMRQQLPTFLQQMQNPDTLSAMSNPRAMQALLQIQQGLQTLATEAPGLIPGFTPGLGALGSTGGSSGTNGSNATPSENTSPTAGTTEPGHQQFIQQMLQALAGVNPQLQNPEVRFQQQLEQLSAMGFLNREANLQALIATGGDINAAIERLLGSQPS
UniProt Q05086: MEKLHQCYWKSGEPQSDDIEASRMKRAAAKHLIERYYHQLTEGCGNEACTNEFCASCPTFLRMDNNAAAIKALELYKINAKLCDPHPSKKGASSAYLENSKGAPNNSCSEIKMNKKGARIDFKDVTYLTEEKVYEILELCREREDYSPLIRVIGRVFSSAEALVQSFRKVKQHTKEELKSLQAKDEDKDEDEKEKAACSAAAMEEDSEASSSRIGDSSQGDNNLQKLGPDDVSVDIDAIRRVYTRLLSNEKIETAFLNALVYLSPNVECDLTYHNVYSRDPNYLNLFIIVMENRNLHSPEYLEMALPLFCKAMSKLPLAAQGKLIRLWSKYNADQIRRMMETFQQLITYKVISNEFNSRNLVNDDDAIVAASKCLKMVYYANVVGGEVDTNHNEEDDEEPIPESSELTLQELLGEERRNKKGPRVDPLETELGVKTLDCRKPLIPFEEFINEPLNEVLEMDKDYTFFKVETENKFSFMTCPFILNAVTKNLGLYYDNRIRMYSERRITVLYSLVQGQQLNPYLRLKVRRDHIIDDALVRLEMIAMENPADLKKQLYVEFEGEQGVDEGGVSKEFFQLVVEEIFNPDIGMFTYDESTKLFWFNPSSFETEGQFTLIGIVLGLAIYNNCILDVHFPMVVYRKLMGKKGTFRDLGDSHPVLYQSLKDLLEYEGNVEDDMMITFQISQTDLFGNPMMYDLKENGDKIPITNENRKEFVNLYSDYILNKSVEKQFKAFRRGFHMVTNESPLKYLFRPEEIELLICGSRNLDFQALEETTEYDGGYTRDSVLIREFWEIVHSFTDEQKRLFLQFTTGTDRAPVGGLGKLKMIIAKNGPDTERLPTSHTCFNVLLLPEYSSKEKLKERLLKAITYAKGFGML

Key:
[1] = target: T1, PEG10, endogenous (gag and gag-pol not told apart in the sentence) (human (endogenous in HEK293)) (UniProt Q86TG7); assay: co-IP; IP of endogenous PEG10 with polyclonal PEG10 antibody or IgG control from WT (and TKO) HEK293 lysate; DSP cross-linking; non-denaturing; western blot with an antibody that recognises UBQLN1 and UBQLN2
T1 sequence: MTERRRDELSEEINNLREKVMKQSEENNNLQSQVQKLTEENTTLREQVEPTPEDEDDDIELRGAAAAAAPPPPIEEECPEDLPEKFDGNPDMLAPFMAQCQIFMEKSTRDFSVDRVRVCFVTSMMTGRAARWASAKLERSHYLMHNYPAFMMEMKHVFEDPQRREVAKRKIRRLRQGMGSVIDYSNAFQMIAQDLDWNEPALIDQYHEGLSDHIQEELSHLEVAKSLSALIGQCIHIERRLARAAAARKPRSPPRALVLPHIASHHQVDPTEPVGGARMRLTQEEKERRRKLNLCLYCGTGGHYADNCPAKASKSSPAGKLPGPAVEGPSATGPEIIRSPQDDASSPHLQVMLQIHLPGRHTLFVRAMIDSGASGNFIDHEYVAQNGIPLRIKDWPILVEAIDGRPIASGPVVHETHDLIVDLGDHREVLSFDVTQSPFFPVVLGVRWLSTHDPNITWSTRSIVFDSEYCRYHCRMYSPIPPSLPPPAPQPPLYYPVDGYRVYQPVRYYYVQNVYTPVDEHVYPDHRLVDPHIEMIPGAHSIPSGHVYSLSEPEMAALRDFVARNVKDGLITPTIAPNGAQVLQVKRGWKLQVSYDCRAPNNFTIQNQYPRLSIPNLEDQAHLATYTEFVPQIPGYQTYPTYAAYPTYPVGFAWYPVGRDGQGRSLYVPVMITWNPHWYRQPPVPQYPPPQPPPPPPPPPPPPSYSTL

[2] = target: ubiquilin 2 (UBQLN2), endogenous (human (endogenous in HEK293)) (UniProt Q9UHD9); assay: co-IP; IP of endogenous UBQLN2 with UBQLN2-specific antibody (6H9) or IgG control cross-linked to protein A/G resin, from WT HEK293 lysate (untransfected, or transfected with FLAG-UBE3A constructs for 48 h); cells cross-linked with DSP; non-denaturing Triton lysis buffer, 4°C overnight; western …
[3] = target: T1, PEG10, endogenous (gag and gag-pol not told apart in the sentence) (human (endogenous in HEK293)); assay: co-IP; IP of endogenous PEG10 (PEG10 antibody or IgG control) from MYC-UBQLN2-expressing TKO cells; cells treated for 16 h with bortezomib, with or without TAK243; UBQLN2 detected by anti-MYC-tag antibody (Fig. S5A right, Fig. 4C)
[4] = target: T2, HA-tagged PEG10 gag-pol^K>R (K393/567/586/590R) (human) (UniProt Q86TG7); assay: co-IP; IP with HA-tag antibody or IgG control from WT HEK293 transiently transfected with HA-tagged PEG10 constructs and 3xFLAG-Ub; UBQLN2 seen with an antibody that recognises UBQLN1 and UBQLN2
T2 sequence: T1 sequence with K393R, K567R, K586R, K590R

[5] = target: FLAG-UBQLN2 WT (AA 1-624) (human) (UniProt Q9UHD9); assay: co-IP; IP with UBQLN2 antibody from TKO HEK293 transfected with FLAG-UBQLN2 constructs (alone, or with FLAG-tagged UBE3A); endogenous PEG10 detected with a polyclonal antibody, UBE3A with a UBE3A antibody
[6] = target: ΔSTIs FLAG-UBQLN2 (missing AA 178-248 and AA 379-462) (human) (UniProt Q9UHD9); assay: as above
[7] = target: FLAG-UBQLN2 ΔUBA (AA 1-580) (human) (UniProt Q9UHD9); assay: as above
[8] = target: FLAG-UBQLN2 ΔUBL (AA 1-624 missing AA 33-107) (human) (UniProt Q9UHD9); assay: as above
MYC-UBQLN2 P506T (human) = MYC-UBQLN2 P506T (human) (UniProt Q9UHD9); assay: co-IP; UBQLN2 variants P497H and P506T tested for interaction with PEG10 (Fig. S5C); which protein was precipitated is not told in what was shown
MYC-UBQLN2 P497H (human) = MYC-UBQLN2 P497H (human) (UniProt Q9UHD9); assay: as above
[9] = target: ubiquilin 2 (UBQLN2), endogenous (human (endogenous in HEK293)) (UniProt Q9UHD9); assay: co-IP; IP of endogenous UBQLN2 with UBQLN2-specific antibody (6H9) or IgG control cross-linked to protein A/G resin, from WT HEK293 lysate (untransfected, or transfected with FLAG-UBE3A constructs for 48 h); cells cross-linked with DSP; non-denaturing Triton lysis buffer, 4°C overnight; western …; remark: listed apart in the source
MYC-UBQLN2 (WT) (human) = MYC-UBQLN2 (WT) (human) (UniProt Q9UHD9); assay: co-IP; IP of MYC-UBQLN2 from TKO cells with doxycycline-inducible MYC-UBQLN2; DSP cross-linking; non-denaturing; western blot for PEG10 (Fig. S5A, left)
[10] = target: ΔPXX FLAG-UBQLN2 (missing AA 491-526) (human) (UniProt Q9UHD9); assay: co-IP; IP with UBQLN2 antibody from TKO HEK293 transfected with FLAG-UBQLN2 constructs (alone, or with FLAG-tagged UBE3A); endogenous PEG10 detected with a polyclonal antibody, UBE3A with a UBE3A antibody

Molecule: PSMD4 (also known as Rpn10), endogenous (from UniProt P55036 1-377)
binding [2]: binds

B1: PEG10, endogenous (gag and gag-pol not told apart in the sentence) (protein, UniProt Q86TG7 1-708)
chain: T1 sequence
binding [5]: binds
binding [6]: binds
binding [7]: binds
binding [8]: binds
binding (MYC-UBQLN2 P506T (human)): binds
binding (MYC-UBQLN2 P497H (human)): binds

B3: PEG10 gag, endogenous (protein, UniProt Q86TG7-2 1-325)
chain: MTERRRDELSEEINNLREKVMKQSEENNNLQSQVQKLTEENTTLREQVEPTPEDEDDDIELRGAAAAAAPPPPIEEECPEDLPEKFDGNPDMLAPFMAQCQIFMEKSTRDFSVDRVRVCFVTSMMTGRAARWASAKLERSHYLMHNYPAFMMEMKHVFEDPQRREVAKRKIRRLRQGMGSVIDYSNAFQMIAQDLDWNEPALIDQYHEGLSDHIQEELSHLEVAKSLSALIGQCIHIERRLARAAAARKPRSPPRALVLPHIASHHQVDPTEPVGGARMRLTQEEKERRRKLNLCLYCGTGGHYADNCPAKASKSSPAGNSPAPL
binding [9]: binds
binding (MYC-UBQLN2 (WT) (human)): binds

Now from value to molecule:

binding [1]: no binding
Molecule: ubiquilin 1 (UBQLN1), endogenous (from UniProt Q9UMX0 1-589)

binding [2]: binds
Molecule: UBE3A (also known as E6AP), endogenous (from UniProt Q05086 1-875) (enzyme)

binding [3]: binds
Molecule: MYC-UBQLN2 (WT) (from UniProt Q9UHD9 1-624)

binding [4]: binds
binding [1]: binds
Molecule: ubiquilin 2 (UBQLN2), endogenous (from UniProt Q9UHD9 1-624)

binding [9]: binds
binding (MYC-UBQLN2 (WT) (human)): binds
binding [10]: binds
B2: PEG10 gag-pol, endogenous (protein, UniProt Q86TG7 1-708)
chain: T1 sequence
